Results are given in words; binding and its absence hold for the method and conditions named. In cells and extracts the contact can be indirect. Some binding calls cover weakened binding; strength is not graded here.
Target: ALG-2 interacting protein X (Alix) (human (endogenous in Magi-5 (HeLa) and HEK293T)) (UniProt Q8WUM4)
Assay: co-IP; Magi-5 cells transfected with pCRF07_BC-wt or pCRF07_BC-7d, 48 h at 37 °C; lysates immunoprecipitated with isotype IgG control, anti-Alix or anti-Gag (p24) and immunoblotted; bands quantified by densitometry

Protein sequences, listed by entry. Tags and fused reporters are not part of them.
UniProt Q8WUM4: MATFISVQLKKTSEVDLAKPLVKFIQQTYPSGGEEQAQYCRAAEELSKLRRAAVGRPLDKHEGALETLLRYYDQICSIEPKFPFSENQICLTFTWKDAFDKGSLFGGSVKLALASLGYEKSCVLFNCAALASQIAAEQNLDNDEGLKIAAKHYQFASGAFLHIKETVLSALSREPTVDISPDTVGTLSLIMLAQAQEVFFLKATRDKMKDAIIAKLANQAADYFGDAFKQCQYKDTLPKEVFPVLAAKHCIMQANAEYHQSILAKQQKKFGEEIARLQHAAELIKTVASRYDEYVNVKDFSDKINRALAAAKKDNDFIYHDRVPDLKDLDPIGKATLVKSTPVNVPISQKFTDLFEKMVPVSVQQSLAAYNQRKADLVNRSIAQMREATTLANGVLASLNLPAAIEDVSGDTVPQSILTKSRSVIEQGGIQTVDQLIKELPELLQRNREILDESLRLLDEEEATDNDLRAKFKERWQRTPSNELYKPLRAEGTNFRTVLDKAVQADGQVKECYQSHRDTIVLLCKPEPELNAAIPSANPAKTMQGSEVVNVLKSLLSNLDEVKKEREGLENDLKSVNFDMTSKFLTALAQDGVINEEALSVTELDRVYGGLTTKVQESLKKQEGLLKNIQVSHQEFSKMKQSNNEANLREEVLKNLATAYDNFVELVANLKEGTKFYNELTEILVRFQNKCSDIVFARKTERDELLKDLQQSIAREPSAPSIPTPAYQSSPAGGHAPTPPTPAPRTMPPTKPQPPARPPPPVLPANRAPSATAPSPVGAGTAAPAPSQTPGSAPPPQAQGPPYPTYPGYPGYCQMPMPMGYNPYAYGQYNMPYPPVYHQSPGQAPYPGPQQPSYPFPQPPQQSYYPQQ
UniProt P17931: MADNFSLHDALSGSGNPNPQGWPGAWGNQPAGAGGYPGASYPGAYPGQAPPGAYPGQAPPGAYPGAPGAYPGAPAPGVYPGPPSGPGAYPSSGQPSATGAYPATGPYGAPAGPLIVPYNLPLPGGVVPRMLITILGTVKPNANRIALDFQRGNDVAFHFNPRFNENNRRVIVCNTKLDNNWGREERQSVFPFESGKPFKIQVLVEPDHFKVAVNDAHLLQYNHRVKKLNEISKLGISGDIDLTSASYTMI

binding: binds
Substance: Galectin-3 (from UniProt P17931 1-250)
